Assay results reported in patent US10939901B2, “Customizable anchorage devices and methods of use” (TYRX, Inc., priority 2016, dated 2021).
For at least one compound, name, drawing or mass did not settle the structure.

Legend:
[1] = Stability of rifampin and minocycline in PBS with and without tranexamic acid; format: physicochemical; conditions: mixtures at the same temperature
Protocol: To determine the stability of active pharmaceutical ingredients, such as, for example, one or more of active pharmaceutical ingredients 26 when combined with a hemostatic agent, such as, for example, one or more of hemostatic agents 24, mixtures of rifampin and minocycline were prepared in phosphate-buffered saline (PBS) with and without tranexamic acid (TXA). The mixtures were tested both at room temperature (RT) (about 23° C.) and at 37° C.

[2] = In vitro elution of rifampin and minocycline from p22-27.5 polymers with TXA in the release media; format: physicochemical; conditions: PBS pH 7.4 without TXA, with TXA 0.05 mg/mL or 5 mg/mL, over 25 hours
Excerpt: To determine the elution of active pharmaceutical ingredients, such as, for example, one or more of active pharmaceutical ingredients 26 from a polymer, such as, for example, one of the polymers discussed herein, in vitro when the active pharmaceutical ingredients are combined with a hemostatic agent, such as, for example, one or more of hemostatic agents 24, in vitro elution of rifampin and minocycline from polymers in the p22-27.5 family containing different amounts of tranexamic acid was evaluated in a PBS buffer over 25 hours. B1=PBS pH 7.4; B2=PBS, pH 7.4+TXA (0.05 mg/mL); B3=PBS, pH 7.4+TXA (5 mg/mL).

What does the source list for `CN(C)c1ccc(O)c2c1C[C@H]1C[C@H]3[C@H](N(C)C)C(O)=C(C(N)=O)C(=O)[C@@]3(O)C(O)=C1C2=O` [minocycline]?
percentage area of minocycline, mixtures with versus without tranexamic acid [1]: substantially the same; elution rate from p22-27.5 polymer [2]: not affected by the presence of TXA
